Data from the supplement of paper PMC11438910.
The list shows a part of the results. The signal is at background level for most entries.

How the values were obtained:
Experiment in all cases: fluorescence intensity of antibody binding to polysaccharide-coupled beads; higher = stronger binding
[1] = target: pneumococcal polysaccharide Pn10A
[2] = target: pneumococcal polysaccharide Pn10B
[3] = target: pneumococcal polysaccharide Pn10C
[4] = target: pneumococcal polysaccharide Pn10F
[5] = target: pneumococcal polysaccharide Pn11A
[6] = target: pneumococcal polysaccharide Pn11B
[7] = target: pneumococcal polysaccharide Pn11C
[8] = target: pneumococcal polysaccharide Pn11D
[9] = target: pneumococcal polysaccharide Pn11F
[10] = target: pneumococcal polysaccharide Pn12A
[11] = target: pneumococcal polysaccharide Pn12B
[12] = target: pneumococcal polysaccharide Pn12F
[13] = target: pneumococcal polysaccharide Pn13
[14] = target: pneumococcal polysaccharide Pn14
[15] = target: pneumococcal polysaccharide Pn15A
[16] = target: pneumococcal polysaccharide Pn15B
[17] = target: pneumococcal polysaccharide Pn15C
[18] = target: pneumococcal polysaccharide Pn15F
[19] = target: pneumococcal polysaccharide Pn16A
[20] = target: pneumococcal polysaccharide Pn16F
[21] = target: pneumococcal polysaccharide Pn17A
[22] = target: pneumococcal polysaccharide Pn17F
[23] = target: pneumococcal polysaccharide Pn18A
[24] = target: pneumococcal polysaccharide Pn18B
[25] = antibody concentration 2337.65 ng/mL
[26] = antibody concentration 12500 ng/mL
[27] = antibody concentration 0.1 ng/mL
[28] = antibody concentration 0.534724 ng/mL
[29] = antibody concentration 2.8593 ng/mL
[30] = antibody concentration 15.2894 ng/mL
[31] = antibody concentration 81.7561 ng/mL
[32] = antibody concentration 437.17 ng/mL

B1: 4-80.2 (protein)
chain 1: QVQLQESGPGLVKPSETLSLTCAVSGDSFSSYWWSWIRQPPGKGLEWIGEINGNVGSTNYNPSLKSRVTISKDASKNQFSLKLSSVTAADTAVYYCARYKEYWGQGVLVTVSS
chain 2: DVVMTQSPLSLPITPGQPASISCRSSQSLVHSNGNTYLSWYQQKPGQPPRRLIYEVSNRDSGVPDRFSGSGAGTDFTLKISRVEAEDVGVYYCGQGTHLPYSFGQGTKVEIK
[1]; [25]
  fluorescence intensity: 28 MFI
[1]; [26]
  fluorescence intensity: 33 MFI
[2]; [27]
  fluorescence intensity: 24.2 MFI
[2]; [28]
  fluorescence intensity: 24.5 MFI
[2]; [29]
  fluorescence intensity: 24 MFI
[2]; [30]
  fluorescence intensity: 22.5 MFI
[2]; [31]
  fluorescence intensity: 24.2 MFI
[2]; [32]
  fluorescence intensity: 24 MFI
[2]; [25]
  fluorescence intensity: 25.5 MFI
[2]; [26]
  fluorescence intensity: 31.5 MFI
[3]; [27]
  fluorescence intensity: 16.2 MFI
[3]; [28]
  fluorescence intensity: 17.2 MFI
[3]; [29]
  fluorescence intensity: 17.5 MFI
[3]; [30]
  fluorescence intensity: 17.2 MFI
[3]; [31]
  fluorescence intensity: 17.2 MFI
[3]; [32]
  fluorescence intensity: 18.2 MFI
[3]; [25]
  fluorescence intensity: 18.5 MFI
[3]; [26]
  fluorescence intensity: 20.2 MFI
[4]; [27]
  fluorescence intensity: 19.5 MFI
[4]; [28]
  fluorescence intensity: 21.5 MFI
[4]; [29]
  fluorescence intensity: 18.5 MFI
[4]; [30]
  fluorescence intensity: 20 MFI
[4]; [31]
  fluorescence intensity: 19.5 MFI
[4]; [32]
  fluorescence intensity: 17.8 MFI
[4]; [25]
  fluorescence intensity: 21.5 MFI
[4]; [26]
  fluorescence intensity: 23.2 MFI
[5]; [27]
  fluorescence intensity: 29.5 MFI
[5]; [28]
  fluorescence intensity: 29.5 MFI
[5]; [29]
  fluorescence intensity: 31 MFI
[5]; [30]
  fluorescence intensity: 27.5 MFI
[5]; [31]
  fluorescence intensity: 27.8 MFI
[5]; [32]
  fluorescence intensity: 31 MFI
[5]; [25]
  fluorescence intensity: 30.5 MFI
[5]; [26]
  fluorescence intensity: 34 MFI
[6]; [27]
  fluorescence intensity: 27.5 MFI
[6]; [28]
  fluorescence intensity: 27 MFI
[6]; [29]
  fluorescence intensity: 25.8 MFI
[6]; [30]
  fluorescence intensity: 25.8 MFI
[6]; [31]
  fluorescence intensity: 24 MFI
[6]; [32]
  fluorescence intensity: 31 MFI
[6]; [25]
  fluorescence intensity: 31.5 MFI
[6]; [26]
  fluorescence intensity: 36.5 MFI
[7]; [27]
  fluorescence intensity: 24 MFI
[7]; [28]
  fluorescence intensity: 22.5 MFI
[7]; [29]
  fluorescence intensity: 21.5 MFI
[7]; [30]
  fluorescence intensity: 22 MFI
[7]; [31]
  fluorescence intensity: 22 MFI
[7]; [32]
  fluorescence intensity: 22 MFI
[7]; [25]
  fluorescence intensity: 26.8 MFI
[7]; [26]
  fluorescence intensity: 63.5 MFI
[8]; [27]
  fluorescence intensity: 23.8 MFI
[8]; [28]
  fluorescence intensity: 24.5 MFI
[8]; [29]
  fluorescence intensity: 23.5 MFI
[8]; [30]
  fluorescence intensity: 22.8 MFI
[8]; [31]
  fluorescence intensity: 25 MFI
[8]; [32]
  fluorescence intensity: 23.2 MFI
[8]; [25]
  fluorescence intensity: 25.5 MFI
[8]; [26]
  fluorescence intensity: 42.5 MFI
[9]; [27]
  fluorescence intensity: 16.5 MFI
[9]; [28]
  fluorescence intensity: 14.2 MFI
[9]; [29]
  fluorescence intensity: 14.5 MFI
[9]; [30]
  fluorescence intensity: 15 MFI
[9]; [31]
  fluorescence intensity: 16 MFI
[9]; [32]
  fluorescence intensity: 15 MFI
[9]; [25]
  fluorescence intensity: 15.5 MFI
[9]; [26]
  fluorescence intensity: 17.8 MFI
[10]; [27]
  fluorescence intensity: 16.2 MFI
[10]; [28]
  fluorescence intensity: 16 MFI
[10]; [29]
  fluorescence intensity: 15.2 MFI
[10]; [30]
  fluorescence intensity: 15 MFI
[10]; [31]
  fluorescence intensity: 14.5 MFI
[10]; [32]
  fluorescence intensity: 14.8 MFI
[10]; [25]
  fluorescence intensity: 17.8 MFI
[10]; [26]
  fluorescence intensity: 26 MFI
[11]; [27]
  fluorescence intensity: 16.5 MFI
[11]; [28]
  fluorescence intensity: 16.5 MFI
[11]; [29]
  fluorescence intensity: 16.5 MFI
[11]; [30]
  fluorescence intensity: 15 MFI
[11]; [31]
  fluorescence intensity: 16.5 MFI
[11]; [32]
  fluorescence intensity: 17.5 MFI
[11]; [25]
  fluorescence intensity: 17.2 MFI
[11]; [26]
  fluorescence intensity: 27.5 MFI
[12]; [27]
  fluorescence intensity: 20.2 MFI
[12]; [28]
  fluorescence intensity: 21 MFI
[12]; [29]
  fluorescence intensity: 18.8 MFI
[12]; [30]
  fluorescence intensity: 17.5 MFI
[12]; [31]
  fluorescence intensity: 19.5 MFI
[12]; [32]
  fluorescence intensity: 20.5 MFI
[12]; [25]
  fluorescence intensity: 18.8 MFI
[12]; [26]
  fluorescence intensity: 27 MFI
[13]; [27]
  fluorescence intensity: 19.8 MFI
[13]; [28]
  fluorescence intensity: 20 MFI
[13]; [29]
  fluorescence intensity: 21 MFI
[13]; [30]
  fluorescence intensity: 19.5 MFI
[13]; [31]
  fluorescence intensity: 19 MFI
[13]; [32]
  fluorescence intensity: 18 MFI
[13]; [25]
  fluorescence intensity: 20.5 MFI
[13]; [26]
  fluorescence intensity: 25 MFI
[14]; [27]
  fluorescence intensity: 15.5 MFI
[14]; [28]
  fluorescence intensity: 16 MFI
[14]; [29]
  fluorescence intensity: 16.2 MFI
[14]; [30]
  fluorescence intensity: 15.2 MFI
[14]; [31]
  fluorescence intensity: 15.8 MFI
[14]; [32]
  fluorescence intensity: 16.5 MFI
[14]; [25]
  fluorescence intensity: 18.5 MFI
[14]; [26]
  fluorescence intensity: 63.5 MFI
[15]; [27]
  fluorescence intensity: 13.5 MFI
[15]; [28]
  fluorescence intensity: 13.5 MFI
[15]; [29]
  fluorescence intensity: 14 MFI
[15]; [30]
  fluorescence intensity: 14.5 MFI
[15]; [31]
  fluorescence intensity: 13 MFI
[15]; [32]
  fluorescence intensity: 13 MFI
[15]; [25]
  fluorescence intensity: 12.5 MFI
[15]; [26]
  fluorescence intensity: 15.5 MFI
[16]; [27]
  fluorescence intensity: 18.5 MFI
[16]; [28]
  fluorescence intensity: 19 MFI
[16]; [29]
  fluorescence intensity: 20 MFI
[16]; [30]
  fluorescence intensity: 19.8 MFI
[16]; [31]
  fluorescence intensity: 20.5 MFI
[16]; [32]
  fluorescence intensity: 20 MFI
[16]; [25]
  fluorescence intensity: 21.2 MFI
[16]; [26]
  fluorescence intensity: 28 MFI
[17]; [27]
  fluorescence intensity: 17 MFI
[17]; [28]
  fluorescence intensity: 16.5 MFI
[17]; [29]
  fluorescence intensity: 16.2 MFI
[17]; [30]
  fluorescence intensity: 15 MFI
[17]; [31]
  fluorescence intensity: 16.5 MFI
[17]; [32]
  fluorescence intensity: 19 MFI
[17]; [25]
  fluorescence intensity: 19.5 MFI
[17]; [26]
  fluorescence intensity: 20 MFI
[18]; [27]
  fluorescence intensity: 17.2 MFI
[18]; [28]
  fluorescence intensity: 17.5 MFI
[18]; [29]
  fluorescence intensity: 18.5 MFI
[18]; [30]
  fluorescence intensity: 17.2 MFI
[18]; [31]
  fluorescence intensity: 19.5 MFI
[18]; [32]
  fluorescence intensity: 17.5 MFI
[18]; [25]
  fluorescence intensity: 18.5 MFI
[18]; [26]
  fluorescence intensity: 24 MFI
[19]; [27]
  fluorescence intensity: 16.8 MFI
[19]; [28]
  fluorescence intensity: 14.5 MFI
[19]; [29]
  fluorescence intensity: 14 MFI
[19]; [30]
  fluorescence intensity: 12.5 MFI
[19]; [31]
  fluorescence intensity: 15.8 MFI
[19]; [32]
  fluorescence intensity: 15 MFI
[19]; [25]
  fluorescence intensity: 16.5 MFI
[19]; [26]
  fluorescence intensity: 21.2 MFI
[20]; [27]
  fluorescence intensity: 23.5 MFI
[20]; [28]
  fluorescence intensity: 24 MFI
[20]; [29]
  fluorescence intensity: 26.5 MFI
[20]; [30]
  fluorescence intensity: 26.2 MFI
[20]; [31]
  fluorescence intensity: 25 MFI
[20]; [32]
  fluorescence intensity: 26.8 MFI
[20]; [25]
  fluorescence intensity: 28 MFI
[20]; [26]
  fluorescence intensity: 34 MFI
[21]; [27]
  fluorescence intensity: 20.2 MFI
[21]; [28]
  fluorescence intensity: 22.5 MFI
[21]; [29]
  fluorescence intensity: 20.5 MFI
[21]; [30]
  fluorescence intensity: 20.2 MFI
[21]; [31]
  fluorescence intensity: 21.5 MFI
[21]; [32]
  fluorescence intensity: 21 MFI
[21]; [25]
  fluorescence intensity: 22 MFI
[21]; [26]
  fluorescence intensity: 24 MFI
[22]; [27]
  fluorescence intensity: 29.8 MFI
[22]; [28]
  fluorescence intensity: 25 MFI
[22]; [29]
  fluorescence intensity: 27.2 MFI
[22]; [30]
  fluorescence intensity: 27 MFI
[22]; [31]
  fluorescence intensity: 27 MFI
[22]; [32]
  fluorescence intensity: 25.8 MFI
[22]; [25]
  fluorescence intensity: 28 MFI
[22]; [26]
  fluorescence intensity: 30.2 MFI
[23]; [27]
  fluorescence intensity: 26.2 MFI
[23]; [28]
  fluorescence intensity: 24 MFI
[23]; [29]
  fluorescence intensity: 23.5 MFI
[23]; [30]
  fluorescence intensity: 24.5 MFI
[23]; [31]
  fluorescence intensity: 23.5 MFI
[23]; [32]
  fluorescence intensity: 24.2 MFI
[23]; [25]
  fluorescence intensity: 26.2 MFI
[23]; [26]
  fluorescence intensity: 29.5 MFI
[24]; [27]
  fluorescence intensity: 31.2 MFI
[24]; [28]
  fluorescence intensity: 30.5 MFI
